Data as given in PubChem BioAssay AID1259308 (NCATS, 2017)
This is one part, drawn at random, of about 59,000 reagents. Over the whole deposit, about 1,510 (2.6%) are marked active. 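Calls use total luciferase alone and ignore viability, so some active siRNAs may act by altering cell number.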 The numbers tell different reagents against one gene apart. Not all columns of the deposit are shown.

Screen: 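Knock-downs that increase output of a recombinant reporter protein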 (primary screen)
Cell system: human HEK293 embryonic kidney cells stably expressing firefly luciferase (HEK-CMV-Luc2-Hygro)
Knock-down reagent: single siRNA against human genes, 0.8 pmol siRNA per well
Timing: 72 h
Measurement: 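Luciferase light (ONE-Glo) measured on one replicate plate set and viability (CellTiter-Glo) on the other, scaled to a negative control siRNA, with robust z-scores and luciferase per cell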
Direction: total luciferase, z-score: higher = more reporter protein produced
Active means: 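Active when the median/MAD z-score for overall luciferase is greater than 3; a gene was taken forward for validation with new siRNAs if at least two of its three siRNAs passed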
Calls: active = raised luciferase; inactive = no rise

VPS13D (vacuolar protein sorting 13 homolog D) #1 scored total luciferase, z-score -2.01; inactive.
Knock-down of VPS13D (vacuolar protein sorting 13 homolog D) #2 came out at: total luciferase, z-score 0.79; inactive.
Depletion of VPS13D (vacuolar protein sorting 13 homolog D) #3 gave: total luciferase, z-score -0.186; inactive.
After knock-down of CLRN3 (clarin 3) #1 the results were total luciferase, z-score -1.55; inactive.
Depletion of CLRN3 (clarin 3) #2 resulted in: total luciferase, z-score 0.0377; inactive.
CLRN3 (clarin 3) #3 gave total luciferase, z-score -0.136; inactive.
ARPP19P2 (ARPP19 pseudogene 2) #1 scored total luciferase, z-score 0.672; inactive.
Depletion of ARPP19P2 (ARPP19 pseudogene 2) #2 gave: total luciferase, z-score 1.94; inactive.
ARPP19P2 (ARPP19 pseudogene 2) #3 gave total luciferase, z-score 0.828; inactive.
Knock-down of CHRNA10 (cholinergic receptor nicotinic alpha 10 subunit) #1 gave: total luciferase, z-score 0.856; inactive.
CHRNA10 (cholinergic receptor nicotinic alpha 10 subunit) #2 gave total luciferase, z-score -2.43; inactive.
Silencing of CHRNA10 (cholinergic receptor nicotinic alpha 10 subunit) #3 came out at: total luciferase, z-score 0.327; inactive.
After knock-down of MSLNL (mesothelin like) #1, the record shows total luciferase, z-score -0.079; inactive.
With knock-down of MSLNL (mesothelin like) #2 the results were total luciferase, z-score -3.3; inactive.
MSLNL (mesothelin like) #3 gave total luciferase, z-score -0.436; inactive.
After knock-down of LAMA2 (laminin subunit alpha 2) #1, the record shows total luciferase, z-score -1.46; inactive.
LAMA2 (laminin subunit alpha 2) #2 gave total luciferase, z-score 0.843; inactive.
For LAMA2 (laminin subunit alpha 2) #3, the entry reads total luciferase, z-score -1.49; inactive.
Silencing of ZMAT2 (zinc finger matrin-type 2) #1 came out at: total luciferase, z-score 0.305; inactive.
After knock-down of ZMAT2 (zinc finger matrin-type 2) #2 the results were total luciferase, z-score -0.312; inactive.
ZMAT2 (zinc finger matrin-type 2) #3 scored total luciferase, z-score 1.44; inactive.
Depletion of TPX2 (TPX2 microtubule nucleation factor) #1 resulted in: total luciferase, z-score -0.202; inactive.
With knock-down of TPX2 (TPX2 microtubule nucleation factor) #2, the screen gave total luciferase, z-score -1.01; inactive.
Against TPX2 (TPX2 microtubule nucleation factor) #3, the entry reads total luciferase, z-score -1.04; inactive.
After knock-down of PTPN23 (protein tyrosine phosphatase non-receptor type 23) #1, the screen gave total luciferase, z-score 0.76; inactive.
Against PTPN23 (protein tyrosine phosphatase non-receptor type 23) #2, the entry reads total luciferase, z-score 1.54; inactive.
PTPN23 (protein tyrosine phosphatase non-receptor type 23) #3 gave total luciferase, z-score 3.6; active.
After knock-down of SRSF3 (serine and arginine rich splicing factor 3) #1, the screen gave total luciferase, z-score 0.117; inactive.
Knock-down of SRSF3 (serine and arginine rich splicing factor 3) #2 came out at: total luciferase, z-score 2.99; inactive.
Against SRSF3 (serine and arginine rich splicing factor 3) #3, the values are total luciferase, z-score 0.531; inactive.
RPL23AP14 (ribosomal protein L23a pseudogene 14) #1 scored total luciferase, z-score -0.729; inactive.
RPL23AP14 (ribosomal protein L23a pseudogene 14) #2 showed total luciferase, z-score 0.845; inactive.
Against RPL23AP14 (ribosomal protein L23a pseudogene 14) #3, the values are total luciferase, z-score -2.52; inactive.
